# This is one part of the list.
# B1: PX14379D-pdi-530-26-530 (Parabacteroides distasonis) (protein)
# chain: DETVYDKLPADDFGQSTAELNALIGNSHNTMKKFWTEYMHLSECSGSMAVTPTRRGGDWYDGGQYREIYMHTWTSQTSRVKSAWKAATEAIGTCNEAIRKLQNSEILTEEEKAQDVADLRGVRAFWIYVMMDYWGNIPLLTEFHPTDKVFPGNSSRQEVFDWLIQEVEEIKDICPPATTENYGSFTQGAAYSLLAKLYLNAEAWGVTFSGNAYQKVIDNCDKVMAMGYILEPNWKDNFSVTNENSKEAILAATFSSSDTGNDGNVKNELHNNTLHYKDYLSLGITASGTWNGICAQPEYVRLFDEEDARLDGTFLTGLMIDKSTGKPIMTDHNNELNHTIDVNMIPGMEYDGTNWSAVEQHDGARCFKWEFASDLTSSMGNDFHIFRLADIYLMKAEALLRGGGSVSEATALVNTIRERGYGNSDHNYATVTLKEVQLERRLELAWEVYSRQDDIRFGCFTTGMWPQSNCERKADDYLKLLPVSQDAWQVNPNLKQNPGYAAFSK
# What was measured:
# Assay in all cases: glycan array binding signal (z-score within array); higher = stronger binding
# Details in all cases: glycan notation: IUPAC condensed, linker removed
# [1] = target: Gal(b1-4)GlcNAc(b1-3)Gal(b1-4)GlcNAc(b1-6)[Gal(b1-3)]GalNAc
# Summary of the method: (§1)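 Glycan array data came from 3228 arrays in the Consortium for Functional Glycomics database, and only arrays with an available protein sequence were kept. Glycan names were put into IUPAC-condensed notation, and columns mapping to the same glycan were averaged. The binding signal is a within-array Z-score, averaged across arrays of one protein sequence run at different concentrations or buffers and across linkers. A negative Z-score can be read as non-binding.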
# [2] = target: Gal(b1-4)GlcNAc(b1-3)Gal(b1-4)[Fuc(a1-3)]GlcNAc(b1-3)Gal(b1-4)[Fuc(a1-3)]GlcNAc
# Summary of the method: as §1
# [3] = target: Gal(b1-4)GlcNAc(b1-3)GalNAc
# Summary of the method: as §1
# [4] = target: Gal(b1-4)GlcNAc(b1-3)[Fuc(a1-3)GlcNAc(b1-6)]Gal(b1-4)Glc
# Summary of the method: as §1
# [5] = target: Gal(b1-4)GlcNAc(b1-3)[Gal(b1-4)GlcNAc(b1-6)]Gal(b1-4)GlcNAc
# Summary of the method: as §1
# [6] = target: Gal(b1-4)GlcNAc(b1-3)[GlcNAc(b1-6)]Gal(b1-4)GlcNAc
# Summary of the method: as §1
# [7] = target: Gal(b1-4)GlcNAc(b1-6)Gal(b1-4)GlcNAc
# Summary of the method: as §1
# [8] = target: Gal(b1-4)GlcNAc(b1-6)GalNAc
# Summary of the method: as §1
# [9] = target: Gal(b1-4)GlcNAc(b1-6)[Gal(b1-3)]GalNAc
# Summary of the method: as §1
# [10] = target: Gal(b1-4)GlcNAc(b1-6)[Gal(b1-4)GlcNAc(b1-3)]GalNAc
# Summary of the method: as §1
# [11] = target: Gal(b1-4)GlcNAc6P
# Summary of the method: as §1
# [12] = target: Gal(b1-6)Gal
# Summary of the method: as §1
# [13] = target: Gal3S(b1-3)GalNAc
# Summary of the method: as §1
# [14] = target: Gal3S(b1-3)GlcNAc
# Summary of the method: as §1
# [15] = target: Gal3S(b1-3)[Fuc(a1-4)]GlcNAc
# Summary of the method: as §1
# [16] = target: Gal3S(b1-4)Glc
# Summary of the method: as §1
# [17] = target: Gal3S(b1-4)Glc6S
# Summary of the method: as §1
# [18] = target: Gal3S(b1-4)GlcNAc
# Summary of the method: as §1
# [19] = target: Gal3S(b1-4)[Fuc(a1-3)]Glc6S
# Summary of the method: as §1
# [20] = target: Gal3S(b1-4)[Fuc(a1-3)]GlcNAc
# Summary of the method: as §1
# [21] = target: Gal3S(b1-4)[Fuc(a1-3)]GlcNAc6S
# Summary of the method: as §1
# [22] = target: Gal3S4S(b1-4)GlcNAc
# Summary of the method: as §1
# [23] = target: Gal3S6S(b1-4)GlcNAc
# Summary of the method: as §1
# [24] = target: Gal3S6S(b1-4)GlcNAc6S
# Summary of the method: as §1
# [25] = target: Gal4S(b1-4)GlcNAc
# Summary of the method: as §1
# [26] = target: Gal4S6S(b1-4)GlcNAc
# Summary of the method: as §1
# [27] = target: Gal6P(b1-4)GlcNAc
# Summary of the method: as §1
# [28] = target: Gal6S(b1-3)GlcNAc
# Summary of the method: as §1
# [29] = target: Gal6S(b1-3)GlcNAc6S
# Summary of the method: as §1
# [30] = target: Gal6S(b1-4)Glc
# Summary of the method: as §1
# [31] = target: Gal6S(b1-4)Glc6S
# Summary of the method: as §1
# [32] = target: Gal6S(b1-4)GlcNAc
# Summary of the method: as §1
# [33] = target: Gal6S(b1-4)GlcNAc6S
# Summary of the method: as §1
# [34] = target: GalNAc(a1-3)Gal
# Summary of the method: as §1
# [35] = target: GalNAc(a1-3)GalNAc
# Summary of the method: as §1
# [36] = target: GalNAc(a1-3)GalNAc(b1-3)Gal(a1-4)Gal(b1-4)Glc
# Summary of the method: as §1
# [37] = target: GalNAc(a1-3)GalNAc(b1-3)Gal(a1-4)Gal(b1-4)GlcNAc
# Summary of the method: as §1
binder,measurement,setting,value
B1,glycan array binding signal (z-score),[1],0.117
same,glycan array binding signal (z-score),[2],-0.033
same,glycan array binding signal (z-score),[3],-0.571
same,glycan array binding signal (z-score),[4],-0.886
same,glycan array binding signal (z-score),[5],0.426
same,glycan array binding signal (z-score),[6],-0.719
same,glycan array binding signal (z-score),[7],0.063
same,glycan array binding signal (z-score),[8],0.905
same,glycan array binding signal (z-score),[9],-0.528
same,glycan array binding signal (z-score),[10],0.558
same,glycan array binding signal (z-score),[11],-0.733
same,glycan array binding signal (z-score),[12],-0.718
same,glycan array binding signal (z-score),[13],0.091
same,glycan array binding signal (z-score),[14],-0.593
same,glycan array binding signal (z-score),[15],0.157
same,glycan array binding signal (z-score),[16],2.44
same,glycan array binding signal (z-score),[17],0.872
same,glycan array binding signal (z-score),[18],0.271
same,glycan array binding signal (z-score),[19],-0.43
same,glycan array binding signal (z-score),[20],-0.141
same,glycan array binding signal (z-score),[21],1.22
same,glycan array binding signal (z-score),[22],-0.454
same,glycan array binding signal (z-score),[23],0.117
same,glycan array binding signal (z-score),[24],2.52
same,glycan array binding signal (z-score),[25],-0.228
same,glycan array binding signal (z-score),[26],-0.101
same,glycan array binding signal (z-score),[27],-0.751
same,glycan array binding signal (z-score),[28],0.293
same,glycan array binding signal (z-score),[29],2.34
same,glycan array binding signal (z-score),[30],-0.874
same,glycan array binding signal (z-score),[31],0.655
same,glycan array binding signal (z-score),[32],-0.052
same,glycan array binding signal (z-score),[33],-0.546
same,glycan array binding signal (z-score),[34],-0.862
same,glycan array binding signal (z-score),[35],0.547
same,glycan array binding signal (z-score),[36],-0.616
same,glycan array binding signal (z-score),[37],0.643

# Already shown: entries from further up.
binder,measurement,setting,value
B1,glycan array binding signal (z-score),[11],-0.733
same,glycan array binding signal (z-score),[12],-0.718

# Source: the supplement of paper PMC8728848
